Measured values taken from patent publication US20240246956A1, “CLASS IIA HISTONE DEACETYLASE (HDAC) DEGRADER LIGANDS AND METHODS OF USE THEREOF” (DANA-FARBER CANCER INSTITUTE, INC., priority 2021, published 2024).
Some entries share one result that the patent states for a list of compounds.

system: class IIa HDACs; assay: Global quantitative proteomics, change in protein abundance in Kelly cells; assay type: cell-based, human; settings: heatmap FIG. 3
Protocol: Cells were washed once with phosphate-buffered saline (PBS), harvested with CellstripperTM (Corning®), washed two additional times with PBS and snap frozen in liquid nitrogen. […] Proteins were precipitated using methanol/chloroform in Donovan et al., Elife 7:e38430 (2018). The precipitated protein was resuspended in 4 M Urea, 50 mM HEPES pH 7.4, followed by dilution to 1 M urea with the addition of 200 mM EPPS, pH 8. Proteins were first digested with LysC (1:50: enzyme:protein) for 12 hours at room temperature. The LysC digestion was diluted to 0.5 M Urea with 200 mM EPPS pH 8 followed by digestion with trypsin (1:50: enzyme:protein) for 6 hours at 37° C. Tandem mass tag (TMT) reagents (Thermo Fisher Scientific) were dissolved in anhydrous acetonitrile (ACN) according to manufacturer's instructions. Anhydrous ACN was added to each peptide sample to a final concentration of 30% v/v, and labeling was induced with the addition of TMT reagent to each sample at a ratio of 1:4 peptide:TMT label. The 11-plex labeling reactions were performed for 1.5 hours at room temperature and the reaction quenched by the addition of hydroxylamine to a final concentration of 0.3% for 15 minutes at room temperature. The sample channels were combined at a 1:1 ratio, desalted using C18 solid phase extraction cartridges (Waters®) and analyzed by LC-MS for channel ratio comparison. Samples were then combined using the adjusted volumes determined in the channel ratio analysis and dried down in a speed vacuum. The combined sample was then resuspended in 1% formic acid, and acidified (pH 2-3) before being subjected to desalting with C18 SPE (Sep-Pak®-, Waters®). […] The 96 resulting fractions were then pooled in a non-contiguous manner into 24 fractions and these fractions were used for subsequent mass spectrometry analysis. Data were collected using an Orbitrap FusionTM LumosTM mass spectrometer (Thermo Fisher Scientific, San Jose, CA, USA) coupled with a […] pump (Thermo Fisher Scientific). Peptides were separated on an EasySprayTM ES803.rev2 75 μm inner diameter microcapillary column (ThermoFisher Scientific). Peptides were separated using a 190 min gradient of 6-27% acetonitrile in 1.0% formic acid with a flow rate of 300 nL/min. Each analysis used an MS3-based TMT method as described in McAlister et al., Anal. Chem. 86(14):7150-7158 (2014). The data were acquired using a mass range of m/z 340-1350, resolution 120,000, automatic gain control (AGC) target 1×10^6, maximum injection time 100 ms, dynamic exclusion of 120 seconds for the peptide measurements in the Orbitrap FusionTM LumosTM mass spectrometer. Data dependent MS2 spectra were acquired in the ion trap with a normalized collision energy (NCE) set at 55%, AGC target set to 1.5×10^5 and a maximum injection time of 150 ms. MS3 scans were acquired in the Orbitrap FusionTM LumosTM mass spectrometer with a higher energy collision dissociation (HCD) set to 55%, AGC target set to 1.5×10^5, maximum injection time of 150 ms, resolution at 50,000 and with a maximum synchronous precursor selection (SPS) precursors set to 10. Proteome Discoverer 2.2 (Thermo Fisher Scientific) was used for .RAW file processing and controlling peptide and protein level false discovery rates, assembling proteins from peptides, and protein quantification from peptides. MS/MS spectra were searched against a Swissprot human database (December 2016) with both the forward and reverse sequences. […] TMT reporter ion intensities were measured using a 0.003 Da window around the theoretical m/z for each reporter ion in the MS3 scan. […] Reporter ion intensities were normalized and scaled using in-house scripts in the R framework. Statistical analysis was carried out using the limma package within the R framework as described in Ritchie et al., Nucleic Acids Res. 43(7):e47 (2015).

SMILES | degradation of class IIa HDACs (heatmap)
Cc1ncsc1-c1ccc([C@H](C)NC(=O)[C@@H]2C[C@@H](O)CN2C(=O)[C@@H](NC(=O)CCCN2CCC(CNC(=O)c3cccc(-c4noc(C(F)(F)F)n4)c3)(c3nc(-c4ccccc4)cs3)CC2)C(C)(C)C)cc1 [Compound 4, (2S,4R)-1-((S)-3,3-dimethyl-2-(4-(4-(4-phenylthiazol-2-yl)-4-((3-(5-(trifluoromethyl)-1,2,4-oxadiazol-3-yl)benzamido)methyl)piperidin-1-yl)butanamido)butanoyl)-4-hydroxy-N-((S)-1-(4-(4-methylthiazol-5-yl)phenyl)ethyl)pyrrolidine-2-carboxamide] | degradation
CCN(CCCCCOc1cccc(C(=O)c2csc([C@@H]3CCCN3C(=O)[C@@H](NC(=O)[C@H](C)NC)C3CCCCC3)n2)c1)C[C@@H](C)NC(=O)c1ccc(-c2noc(C(F)(F)F)n2)cc1 [Compound 15, N-((R)-1-((5-(3-(2-((S)-1-((S)-2-cyclohexyl-2-((S)-2-(methylamino)propanamido)acetyl)pyrrolidin-2-yl)thiazole-4-carbonyl)phenoxy)pentyl)(ethyl)amino)propan-2-yl)-4-(5-(trifluoromethyl)-1,2,4-oxadiazol-3-yl)benzamide] | degradation
CCN(CCCCCCNc1cccc2c1C(=O)N(C1CCC(=O)NC1=O)C2=O)C[C@@H](C)NC(=O)c1ccc(-c2noc(C(F)(F)F)n2)cc1 (stereo partly drawn) [Compound 13, N-((2R)-1-((6-((2-(2,6-dioxopiperidin-3-yl)-1,3-dioxoisoindolin-4-yl)amino)hexyl)(ethyl)amino)propan-2-yl)-4-(5-(trifluoromethyl)-1,2,4-oxadiazol-3-yl)benzamide] | degradation
CN[C@@H](C)C(=O)N[C@H](C(=O)N1CCC[C@H]1c1nc(C(=O)c2cccc(OCCOCCOCCN3CCC(CNC(=O)c4cccc(-c5noc(C(F)(F)F)n5)c4)(c4nc(-c5ccccc5)cs4)CC3)c2)cs1)C1CCCCC1 [Compound 12, N-((1-(2-(2-(2-(3-(2-((S)-1-((S)-2-cyclohexyl-2-((S)-2-(methylamino)propanamido)acetyl)pyrrolidin-2-yl)thiazole-4-carbonyl)phenoxy)ethoxy)ethoxy)ethyl)-4-(4-phenylthiazol-2-yl)piperidin-4-yl)methyl)-3-(5-(trifluoromethyl)-1,2,4-oxadiazol-3-yl)benzamide] | degradation
CCN(CCNc1cccc2c1C(=O)N(C1CCC(=O)NC1=O)C2=O)C[C@@H](C)NC(=O)c1ccc(-c2noc(C(F)(F)F)n2)cc1 (stereo partly drawn) [Compound 16, N-((2R)-1-((2-((2-(2,6-dioxopiperidin-3-yl)-1,3-dioxoisoindolin-4-yl)amino)ethyl)(ethyl)amino)propan-2-yl)-4-(5-(trifluoromethyl)-1,2,4-oxadiazol-3-yl)benzamide] | degradation
CN[C@@H](C)C(=O)N[C@H](C(=O)N1CCC[C@H]1c1nc(C(=O)c2cccc(OCCN3CCC(CNC(=O)c4cccc(-c5noc(C(F)(F)F)n5)c4)(c4nc(-c5ccccc5)cs4)CC3)c2)cs1)C1CCCCC1 [Compound 10] | degradation
CCN(CCCNc1cccc2c1C(=O)N(C1CCC(=O)NC1=O)C2=O)C[C@@H](C)NC(=O)c1ccc(-c2noc(C(F)(F)F)n2)cc1 (stereo partly drawn) [Compound 21, N-((2R)-1-((3-((2-(2,6-dioxopiperidin-3-yl)-1,3-dioxoisoindolin-4-yl)amino)propyl)(ethyl)amino)propan-2-yl)-4-(5-(trifluoromethyl)-1,2,4-oxadiazol-3-yl)benzamide] | degradation
CCN(CCOCCOCCC(=O)N[C@H](C(=O)N1C[C@H](O)C[C@H]1C(=O)N[C@@H](C)c1ccc(-c2scnc2C)cc1)C(C)(C)C)C[C@@H](C)NC(=O)c1ccc(-c2noc(C(F)(F)F)n2)cc1 [Compound 17] | degradation
CCN(CCCC(=O)N[C@H](C(=O)N1C[C@H](O)C[C@H]1C(=O)N[C@@H](C)c1ccc(-c2scnc2C)cc1)C(C)(C)C)C[C@@H](C)NC(=O)c1ccc(-c2noc(C(F)(F)F)n2)cc1 [Compound 18, (2S,4R)-1-((S)-2-(4-(ethyl((R)-2-(4-(5-(trifluoromethyl)-1,2,4-oxadiazol-3-yl)benzamido)propyl)amino)butanamido)-3,3-dimethylbutanoyl)-4-hydroxy-N-((S)-1-(4-(4-methylthiazol-5-yl)phenyl)ethyl)pyrrolidine-2-carboxamide] | degradation
CCN(CCOCCOCCNc1cccc2c1C(=O)N(C1CCC(=O)NC1=O)C2=O)C[C@@H](C)NC(=O)c1ccc(-c2noc(C(F)(F)F)n2)cc1 (stereo partly drawn) [Compound 14, N-((2R)-1-((2-(2-(2-((2-(2,6-dioxopiperidin-3-yl)-1,3-dioxoisoindolin-4-yl)amino)ethoxy)ethoxy)ethyl)(ethyl)amino)propan-2-yl)-4-(5-(trifluoromethyl)-1,2,4-oxadiazol-3-yl)benzamide] | degradation
CCN(CCCCNc1cccc2c1C(=O)N(C1CCC(=O)NC1=O)C2=O)C[C@@H](C)NC(=O)c1ccc(-c2noc(C(F)(F)F)n2)cc1 (stereo partly drawn) [Compound 20, N-((2R)-1-((4-((2-(2,6-dioxopiperidin-3-yl)-1,3-dioxoisoindolin-4-yl)amino)butyl)(ethyl)amino)propan-2-yl)-4-(5-(trifluoromethyl)-1,2,4-oxadiazol-3-yl)benzamide] | degradation
O=C1CCC(N2C(=O)c3cccc(NCCN4CCC(CNC(=O)c5cccc(-c6noc(C(F)(F)F)n6)c5)(c5nc(-c6ccccc6)cs5)CC4)c3C2=O)C(=O)N1 (stereo not shown) [Compound 3, N-((1-(2-((2-(2,6-dioxopiperidin-3-yl)-1,3-dioxoisoindolin-4-yl)amino)ethyl)-4-(4-phenylthiazol-2-yl)piperidin-4-yl)methyl)-3-(5-(trifluoromethyl)-1,2,4-oxadiazol-3-yl)benzamide] | degradation
O=C(COc1cccc2c1C(=O)N(C1CCC(=O)NC1=O)C2=O)NCCOCCOCCOCCN1CCC(CNC(=O)c2cccc(-c3noc(C(F)(F)F)n3)c2)(c2nc(-c3ccccc3)cs2)CC1 (stereo not shown) [Compound 8] | degradation
